The results in this text go back to PubChem BioAssay AID817 (Emory University Molecular Libraries Screening Center, 2007).

SMILES strings stand for the structures. This is one part of the list.

This assay can be described thus: growth rescue of sdo1-depleted yeast, primary screen, S. cerevisiae, bone marrow failure model (AID 817).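 Note: z-score against mean and SD of all compound wells on the same plate.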 To be noted: S. cerevisiae sdo1-depleted JHY4D growth rescue, OD600; measured here: growth rescue at 24 h; at 10 µM; stronger effect = higher value; pdr5 snq2 efflux-pump mutant strain.
On to `CCc1nc2c(n1)c1c(non1O)c1c2no[n+]1[O-]`, for which the z-score is -1.03.

With `CP(=O)(Oc1ccccc1)N1CCOC1=O` (configuration not stated), the z-score amounted to 0.83.

In turn, `O=[N+]([O-])c1cccc2n[nH]nc12` registered a z-score of -0.71.

In turn, `CC(=O)N1C2C3N(C(C)=O)C1C1N(C(C)=O)C(C(N1C(C)=O)N3C(C)=O)N2C(C)=O` showed a z-score of 0.93.

For the molecule `COc1ccc(OP(C)(=O)Nc2ccc(Br)cc2)cc1` (configuration not stated), the z-score stood at 0.61.

`CCN(CC)CC(O)COC(=O)C(O)(c1ccccc1)C1CCCCC1` (configuration not stated) gave a z-score of 2.04.

Turning to `CC1CCN(C(=O)Oc2c(Cl)cc(Cl)c3cccnc23)CC1`, the z-score was -0.91.

As to `CN(C)C(=O)OCCc1n(C)cc[n+]1C`, the z-score was -0.01.

Molecule `CP(=O)(Nc1ccc(Cl)cc1)Oc1ccc(F)cc1` (configuration not stated) came in with a z-score of 0.6.

In turn, `CC(C)(C)c1ccc(OP(C)(=O)O)cc1` gave a z-score of 1.08.

For the molecule `CP(=O)(OC12CC3CC(CC(C3)C1)C2)OC12CC3CC(CC(C3)C1)C2`, the z-score is -0.04.

Consider `CCOC(=O)c1ccc(NP(C)(=O)Oc2ccc(Cl)cc2)cc1` (configuration not stated), for which the z-score is -2.39.

As for `COc1ccc(OP(C)(=O)Nc2ccccc2Br)cc1` (configuration not stated), the z-score is -0.52.

`COc1ccccc1OP(C)(=O)Nc1ccc(C)c(C)c1` (configuration not stated) showed a z-score of 0.14.

The molecule `CCOP(=O)(Nc1ccccc1)OCC` came in with a z-score of 0.25.

For `Cc1cc(SC(NC(=O)c2ccc(F)cc2)C(Cl)(Cl)Cl)ncn1` (configuration not stated), the z-score amounted to 0.02.

For the molecule `CCN(N=Nc1nonc1N)c1nonc1N`, the z-score is -0.09.

Molecule `Cc1nc2ccc3ccccc3c2o1.O=[N+]([O-])c1cc([N+](=O)[O-])c(O)c([N+](=O)[O-])c1` returned a z-score of -0.3.

With `CN(C)CCOC(=O)C(O)(c1ccccc1)C1CCCC1` (configuration not stated), the z-score turned out to be 0.6.

As to `CN1CCCC(OC(=O)C(c2ccccc2)c2ccccc2)C1` (configuration not stated), the z-score amounted to 1.14.

Regarding `COc1ccc(OP(C)(=O)Nc2ccccn2)cc1` (configuration not stated), the z-score was -0.1.

With `CCc1ccc(OP(C)(=O)O)cc1`, the z-score was -0.04.

Regarding `COc1ccccc1OP(C)(=O)Nc1ccc(C)cc1C` (configuration not stated), the z-score stood at 0.28.

The molecule `CP(=O)(Nc1ccccn1)Oc1ccccc1` (configuration not stated) displayed a z-score of 1.7.

`Cc1c2non([O-])c-2c(C)[n+](=O)[n+]1[O-]`: the z-score was -0.12.

As for `O=C(NC(Sc1ccncn1)C(Cl)(Cl)Cl)c1ccccc1` (configuration not stated), the z-score is 1.34.

For `Oc1ccccc1CNc1ccccn1`, the z-score amounted to 0.56.

`CC(C)CC(=O)NC(Sc1ccc(Cl)cc1)C(Cl)(Cl)Cl` (configuration not stated) displayed a z-score of 0.82.

As for `Cc1c(NP(C)(=O)Oc2ccc(C(C)C)cc2)c(=O)n(-c2ccccc2)n1C` (configuration not stated), the z-score was -0.09.

As for `CC(C)c1ccc(OP(C)(=O)Nc2ccc(SC(F)(F)F)cc2)cc1` (configuration not stated), the z-score was -0.07.

Regarding `CP(=O)(Nc1ccccc1F)Oc1ccccc1` (configuration not stated), the z-score turned out to be 1.48.

`O=P1(Nc2nc3ccc(Cl)cc3s2)COc2ccccc2O1` (configuration not stated): the z-score stood at 0.73.

`O=C(OCCN1CCN(CCOCc2ccccc2)CC1)C(O)(c1ccccc1)c1ccccc1` came in with a z-score of 0.23.

Take `CCOC(=O)c1ccc(NP(C)(=O)Oc2ccc(F)cc2)cc1` (configuration not stated): the z-score is -0.34.

`CCOC(=O)NC(Sc1ccccc1)C(Cl)(Cl)Cl` (configuration not stated) yielded a z-score of -0.06.

`CP(=O)(Nc1ccccc1)Oc1ccc(F)cc1` (configuration not stated) came in with a z-score of -0.65.

For the molecule `CCN(CC)CCCOC(=O)C(O)(c1ccccc1)C1CCCCC1` (configuration not stated), the z-score is -0.11.

`CCC(=O)N1C2C3N(C(=O)CC)C1C1N(C(=O)CC)C(C(N1C(=O)CC)N3C(=O)CC)N2C(=O)CC` yielded a z-score of -2.05.

As to `CC(=O)NC(SC(=S)N(CC(C)C)CC(C)C)C(Cl)(Cl)Cl` (configuration not stated), the z-score was determined as 0.37.

`COC(=O)c1cc2c(s1)N=C(c1ccccc1)N(C)P2(=O)N1CCOCC1` (configuration not stated) gave a z-score of -0.35.

Turning to `CN(C)CCOC(=O)C(O)(c1ccccc1)C1CCCCC1` (configuration not stated), the z-score turned out to be 0.44.

Take `COc1ccc(OP(C)(=O)Nc2cccc(Br)c2)cc1` (configuration not stated): the z-score was -0.56.

Molecule `O=C(OC1CN2CCC1CC2)c1cccc(Cl)c1` (configuration not stated) yielded a z-score of -0.32.

On to `C(Cc1nn[nH]n1)Cc1nn[nH]n1`, for which the z-score is -0.41.

`CC(=O)NC(SC(=S)N(C)C)C(Cl)(Cl)Cl` (configuration not stated) showed a z-score of -1.

Take `c1nnnn1CCn1cnnn1`: the z-score was -0.5.

In the case of `CCOP(C)(=S)SCC(=O)NC(C)(CC)C(=O)O` (configuration not stated), the z-score was found to be 0.58.

With `CC(C)C(=O)NC(Sc1ccccc1)C(Cl)(Cl)Cl` (configuration not stated), the z-score was -0.62.

`O=P(Nc1nccs1)(c1ccccc1)c1ccccc1` showed a z-score of -0.02.

Consider `Cc1ccccc1NP(C)(=O)Nc1ccccc1C`, for which the z-score is -0.27.

Molecule `CP(=O)(Nc1ccc2c(c1)OCCO2)Oc1ccccc1` (configuration not stated) registered a z-score of -0.78.

The molecule `Clc1n[nH]nc1-c1nn[nH][15n]1` gave a z-score of -0.96.

Consider `O=P1(Nc2ccccn2)COc2ccccc2OC1`, for which the z-score was determined as 1.63.

For `Cc1nc2ccc3ccccc3c2s1.O=[N+]([O-])c1cc([N+](=O)[O-])c(O)c([N+](=O)[O-])c1`, the z-score was -1.4.

As for `Cc1nn(-c2ccccc2)c2c1P(=O)(N1CCOCC1)N(C)C(c1ccccc1)=N2` (configuration not stated), the z-score turned out to be 0.04.

For `COc1cc(C2NCCC3(OCCO3)C2(C)C)cc(OC)c1OC.O=[N+]([O-])c1cc([N+](=O)[O-])c(O)c([N+](=O)[O-])c1` (configuration not stated), the z-score was 1.01.

For `CP(=O)(Nc1ccc(SC(F)(F)F)cc1)Oc1ccccc1` (configuration not stated), the z-score was -0.65.

Molecule `O=P1(Nc2ccc(Br)cn2)COc2ccccc2OC1` showed a z-score of -0.88.

`Cc1ccc(OCC(=O)OC2CN3CCC2CC3)cc1` (configuration not stated) had a z-score of -0.42.

`O=P1(Nc2ncccn2)COc2ccccc2OC1` showed a z-score of 0.11.

As for `COc1ccccc1OP(C)(=O)Nc1c(C)cccc1C` (configuration not stated), the z-score came out at 0.63.

On to `CN1CCCCC1COC(=O)C1(O)c2ccccc2CCc2ccccc21` (configuration not stated), for which the z-score came out at 0.22.

The molecule `O=P(Nc1nccs1)(c1ccccc1)c1nc2ccccc2s1` (configuration not stated) returned a z-score of -1.17.

For `CCOP1(=S)c2c(C)nn(CCC#N)c2N=C(c2ccccc2F)N1C` (configuration not stated), the z-score is 0.35.

Consider `CCOP1(=S)c2c(C)nn(CCC#N)c2N=C(c2ccc(F)cc2)N1C` (configuration not stated), for which the z-score is 0.71.

`CC1=NCCc2c1[nH]c1ccccc21.O=[N+]([O-])c1cc([N+](=O)[O-])c(O)c([N+](=O)[O-])c1` showed a z-score of 0.54.

Regarding `O=[N+]([O-])c1ccc2c(c1)nnn2O`, the z-score turned out to be 0.94.

For the molecule `Cc1cc(C)cc(OP(C)(=O)Nc2ccc(C)cc2C)c1` (configuration not stated), the z-score is -0.4.

`Cc1cccc(OCC(=O)OC2CN3CCC2CC3)c1` (configuration not stated): the z-score was -0.72.

As for `CCOC(=O)c1ccc(NP(C)(=O)Oc2cc(C)cc(C)c2)cc1` (configuration not stated), the z-score was found to be 0.22.

Turning to `CCOP(=O)(Nc1cccc2ccccc12)OCC`, the z-score is -0.45.

`Cc1ccc(NCCc2c([N+](=O)[O-])cc([N+](=O)[O-])cc2[N+](=O)[O-])cc1`: the z-score was -0.32.

The molecule `Cc1cc(C)cc(OP(C)(=O)Nc2ccccn2)c1` (configuration not stated) showed a z-score of -0.47.

Molecule `Cc1ccc(C)c(NP(C)(=O)Oc2ccccc2)c1` (configuration not stated) displayed a z-score of -0.67.

In the case of `Cc1c2c(nc3ccccc13)SC(C(Cl)Cl)C2` (configuration not stated), the z-score was -1.49.

In turn, `O=C(OC1CN2CCC1CC2)C12CC3CC(CC(C3)C1)C2` (configuration not stated) had a z-score of -1.44.

In turn, `CC(C)(C)c1ccc(OP(C)(=O)Nc2ccc(SC(F)(F)F)cc2)cc1` (configuration not stated) displayed a z-score of -0.68.

With `Cc1ccc2nc3c(c(C)c2c1)CC(C(Cl)Cl)S3` (configuration not stated), the z-score is -1.02.

`O=[N+]([O-])c1cc([N+](=O)[O-])c(-c2ccn[nH]2)s1` registered a z-score of -1.99.

The molecule `COc1ccc(OP(C)(=O)Nc2cccc(F)c2)cc1` (configuration not stated) showed a z-score of -0.27.

For `CCN(CC)C(=S)SC(NC=O)C(Cl)(Cl)Cl` (configuration not stated), the z-score was -0.77.

On to `ClCCSc1nnc(-c2cccnc2)o1`, for which the z-score came to 2.86.

`CCOC(=O)c1ccc(NP(C)(=O)Oc2ccccc2)cc1` (configuration not stated) came in with a z-score of -0.27.

In turn, `Cc1ccc(NP(C)(=O)Oc2ccccc2)c(C)c1` (configuration not stated) displayed a z-score of 1.25.

Take `COc1ccccc1OP(C)(=O)Nc1ccc(C)cc1` (configuration not stated): the z-score came out at 0.84.

`Cc1cc(SC(NC(=O)c2ccccc2)C(Cl)(Cl)Cl)nc(C(C)C)n1` (configuration not stated) yielded a z-score of -0.61.

Regarding `CP(=O)(Nc1ccccc1Br)Oc1ccccc1` (configuration not stated), the z-score was -0.36.

Molecule `CP(=S)(Nn1cnnc1)Oc1ccccc1` (configuration not stated) showed a z-score of 0.88.

The molecule `Cc1cc(C)cc(OP(C)(=O)Nc2ccc(SC(F)(F)F)cc2)c1` (configuration not stated) came in with a z-score of -0.21.

`O=C(COc1ccccc1)OC1CN2CCC1CC2` (configuration not stated) displayed a z-score of 0.02.

In turn, `CP(=O)(NC(=O)Nc1ccccc1)Oc1ccccc1` (configuration not stated) yielded a z-score of -0.2.

Regarding `Cc1cccc(C)c1OP(C)(=O)Nc1ccc(SC(F)(F)F)cc1` (configuration not stated), the z-score is -1.55.

As for `COP1(=S)c2c(C)nn(CCC#N)c2N=C(c2ccc(F)cc2)N1C` (configuration not stated), the z-score stood at 0.1.

Consider `CCC(C)N(CC(C)C)C(=S)SC(NC(C)=O)C(Cl)(Cl)Cl` (configuration not stated), for which the z-score is -1.66.

The molecule `CP(=O)(Nc1ccccn1)Oc1ccc(Cl)cc1` (configuration not stated) showed a z-score of -0.43.

With `CCOP(C)(=S)SCC(=O)NC(C)C(=O)O` (configuration not stated), the z-score is -0.01.

For the molecule `CCOC(=O)c1ccc(NP(C)(=O)Oc2ccc(OC)cc2)cc1` (configuration not stated), the z-score is -1.57.
